Source: article PMC10113886
These are yes or no findings as the source states them, for the method shown. Binding seen in cells or lysates may run through a third protein. Binding can be weak; no strength is given.

Chains of the proteins cited; added tags and fusions are not shown. Lines headed by an entry give the natural chain unless they say otherwise; changes in a name come on top.
UniProt Q9W266: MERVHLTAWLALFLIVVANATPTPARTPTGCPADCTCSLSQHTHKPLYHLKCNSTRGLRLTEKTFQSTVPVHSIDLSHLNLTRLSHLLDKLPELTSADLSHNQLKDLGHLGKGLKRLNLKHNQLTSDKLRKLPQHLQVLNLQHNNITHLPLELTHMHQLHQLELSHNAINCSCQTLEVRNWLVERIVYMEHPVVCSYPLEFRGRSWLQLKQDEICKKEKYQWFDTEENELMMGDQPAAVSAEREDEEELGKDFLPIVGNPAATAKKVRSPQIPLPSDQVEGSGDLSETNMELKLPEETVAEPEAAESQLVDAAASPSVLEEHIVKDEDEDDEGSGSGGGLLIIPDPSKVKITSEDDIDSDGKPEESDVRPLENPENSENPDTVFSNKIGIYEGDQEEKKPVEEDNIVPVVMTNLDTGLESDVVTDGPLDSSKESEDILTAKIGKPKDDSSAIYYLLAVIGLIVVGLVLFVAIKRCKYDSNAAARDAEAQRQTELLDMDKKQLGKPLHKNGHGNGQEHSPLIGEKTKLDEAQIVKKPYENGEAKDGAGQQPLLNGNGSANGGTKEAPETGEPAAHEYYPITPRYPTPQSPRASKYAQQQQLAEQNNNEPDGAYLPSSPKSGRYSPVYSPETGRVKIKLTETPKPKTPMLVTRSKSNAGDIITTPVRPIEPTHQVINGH

Target: secreted form (the extracellular domain) of Myc-Wdp (Drosophila) (UniProt Q9W266)
Assay: co-IP; Wg expressed with or without sec-Myc-Wdp in Dmel2 (S2) cells, 72 h at 25°C; 1 ml conditioned medium incubated with anti-cMyc antibody-agarose beads overnight at 4°C, washed, eluted with 6 M urea, blotted with anti-Wg

B1: Wingless (ligand, UniProt P09615 18-468)
chain: GSSLSQVEGKQKSGRGRGSMWWGIAKVGEPNNITPIMYMDPAIHSTLRRKQRRLVRDNPGVLGALVKGANLAISECQHQFRNRRWNCSTRNFSRGKNLFGKIVDRGCRETSFIYAITSAAVTHSIARACSEGTIESCTCDYSHQSRSPQANHQAGSVAGVRDWEWGGCSDNIGFGFKFSREFVDTGERGRNLREKMNLHNNEAGRAHVQAEMRQECKCHGMSGSCTVKTCWMRLANFRVIGDNLKARFDGATRVQVTNSLRATNALAPVSPNAAGSNSVGSNGLIIPQSGLVYGEEEERMLNDHMPDILLENSHPISKIHHPNMPSPNSLPQAGQRGGRNGRRQGRKHNRYHFQLNPHNPEHKPPGSKDLVYLEPSPSFCEKNLRQGILGTHGRQCNETSLGVDGCGLMCCGRGYRRDEVVVVERCACTFHWCCEVKCKLCRTKKVIYTCL
binding: binds
